The assay has as its target T1, TRADD overexpressed in HEK293T cells, Q15628.
T1 chain: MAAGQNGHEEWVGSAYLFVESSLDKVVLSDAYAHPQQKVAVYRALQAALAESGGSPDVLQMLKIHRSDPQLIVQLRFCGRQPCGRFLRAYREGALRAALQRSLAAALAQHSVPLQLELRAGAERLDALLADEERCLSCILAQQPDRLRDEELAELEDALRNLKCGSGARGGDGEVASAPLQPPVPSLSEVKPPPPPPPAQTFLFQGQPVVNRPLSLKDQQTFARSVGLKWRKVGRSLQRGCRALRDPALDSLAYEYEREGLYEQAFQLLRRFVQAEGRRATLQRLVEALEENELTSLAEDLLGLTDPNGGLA
Kind of assay: non-reducing SDS-PAGE and Western blot. As to conditions: remark: other sources report otherwise. A general note: A western blot detects proteins with antibodies after separation by electrophoresis.

The record followed here is PMC6191443.

No constants are given. Whether binding was seen depends on the method and setting. Some binding calls cover weakened binding; strength is not graded here.

B1: TRADD overexpressed in HEK293T cells, Q15628 1-312 (protein)
chain: MAAGQNGHEEWVGSAYLFVESSLDKVVLSDAYAHPQQKVAVYRALQAALAESGGSPDVLQMLKIHRSDPQLIVQLRFCGRQPCGRFLRAYREGALRAALQRSLAAALAQHSVPLQLELRAGAERLDALLADEERCLSCILAQQPDRLRDEELAELEDALRNLKCGSGARGGDGEVASAPLQPPVPSLSEVKPPPPPPPAQTFLFQGQPVVNRPLSLKDQQTFARSVGLKWRKVGRSLQRGCRALRDPALDSLAYEYEREGLYEQAFQLLRRFVQAEGRRATLQRLVEALEENELTSLAEDLLGLTDPNGGLA
For B1, the binding entry was “binds”.
